PubChem BioAssay AID1224826, NIAID | 2016

Purpose: 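Regulators of Tlr4 signalling leading to Tnf-alpha expression in macrophages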 (primary screen)
Cells: RAW264.7 G9 macrophages from mouse bearing reporters for p65 (GFP) and the Tnf promoter (mCherry)
Reagent: siRNA pool against mouse genes, 100 nM
Time to read-out: 16 h of LPS stimulation, after 2 days of siRNA transfection
Conditions: bacterial lipopolysaccharide (Salmonella minnesota R595), 10 ng/ml
Measurement: 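Imaged Tnf reporter mCherry in nuclei, minus background, normalised per plate to the median and expressed as robust z-scores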
Direction: Tnf reporter robust z-score: higher = stronger Tnf promoter reporter signal after LPS; Tnf reporter intensity: higher = stronger Tnf promoter reporter signal
Active means: 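Called active when robust z-score is at most -1.3, matching the median of the Tlr4 knock-down control, or over 3; control wells and wells with under 50 cells never active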
Calls: active = Tnf reporter clearly lowered or raised; inactive = no clear change in Tnf reporter
This is a random part of about 17,000 reagents. Of all reagents, about 1,110 (6.6%) got an active call. 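Active means lowered or raised reporter signal; replicate intensities are raw and not normalised per plate.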 Entries without a mark were called inactive. No sequences are given here.

Target gene,Tnf reporter robust z-score,fewer than 50 cells in well,"Tnf reporter intensity, replicate 1","Tnf reporter intensity, replicate 2"
Trhr2,1.63,enough cells in well,182,145
Mthfd1,0.22,enough cells in well,253,246
Or8g2b,,fewer than 50 cells per well; well left out of calls,58.4,95.3
Spaca7b,-0.25,enough cells in well,205,76.6
Gcg,0.15,enough cells in well,211,335
E2f3,1.57,enough cells in well,336,333
Cacng7,-0.14,enough cells in well,166,155
H4c14,-0.61,enough cells in well,198,128
Efna5,-1.69 (active),enough cells in well,105,92.8
Secisbp2l,,fewer than 50 cells per well; well left out of calls,25.9,51.5
Ppp2r1a,0.66,enough cells in well,290,245
Creld2,-0.6,enough cells in well,133,124
Diras1,0.72,enough cells in well,302,242
Cel,1.2,enough cells in well,325,312
Cnnm4,0.15,enough cells in well,278,199
Poll,0.42,enough cells in well,249,247
Adprhl1,0.66,enough cells in well,191,225
Mtrf1l,-0.21,enough cells in well,129,166
Ptprr,-1.14,enough cells in well,124,96.5
Pcdh7,-0.74,enough cells in well,194,127
Rps6kl1,0.91,enough cells in well,236,230
Stub1,-0.64,enough cells in well,220,170
Ceacam11,0.9,enough cells in well,229,209
Slamf9,3.32 (active),enough cells in well,209,220
Vmn1r10,-1.37 (active),enough cells in well,67,45.4
Tmem25,-0.37,enough cells in well,200,120
Ttc14,-1.14,enough cells in well,74.9,52.3
Zcchc18,-0.21,enough cells in well,233,74.5
Or52h9,-0.04,enough cells in well,105,107
Fyco1,2.19,enough cells in well,339,299
Ccdc121rt1,0.84,enough cells in well,252,220
Mrgpre,1.25,enough cells in well,380,118
4930563M21Rik,,fewer than 50 cells per well; well left out of calls,162,38.5
Klhdc8a,2.42,enough cells in well,286,306
Aga,-0.41,enough cells in well,120,174
Plscr2,-0.37,enough cells in well,76,108
Coa4,1.04,enough cells in well,206,229
Or51e2,2.26,enough cells in well,431,169
Or1o2,0.16,enough cells in well,116,177
Ubtf,-0.7,enough cells in well,184,165

Active calls (from the list above):
Target gene,Tnf reporter robust z-score,fewer than 50 cells in well,"Tnf reporter intensity, replicate 1","Tnf reporter intensity, replicate 2"
Efna5,-1.69 (active),enough cells in well,105,92.8
Slamf9,3.32 (active),enough cells in well,209,220
Vmn1r10,-1.37 (active),enough cells in well,67,45.4
